Measured values published in paper PMC10053972.
These are yes or no findings as the source states them, for the method shown. In cells and extracts the contact can be indirect. Some entries that bind do so weakly or less than the wild type. For some assays here: Where a sequence is shown, tags or fusion partners need not be part of it. Blank lines part the entries; values can stand above or below the binder they belong to.

Columns and labels:
[1] = biological target: T1, Cell division cycle associated 8 (CDCA8), in 293 T cells (human (endogenous in 293 T)) (UniProt Q53HL2); test: co-IP; exogenous Co-IP: proteins of 293 T cells infected with TMED3-Flag immunoprecipitated with Flag, CDCA8 or IgG, then western blot
T1 sequence: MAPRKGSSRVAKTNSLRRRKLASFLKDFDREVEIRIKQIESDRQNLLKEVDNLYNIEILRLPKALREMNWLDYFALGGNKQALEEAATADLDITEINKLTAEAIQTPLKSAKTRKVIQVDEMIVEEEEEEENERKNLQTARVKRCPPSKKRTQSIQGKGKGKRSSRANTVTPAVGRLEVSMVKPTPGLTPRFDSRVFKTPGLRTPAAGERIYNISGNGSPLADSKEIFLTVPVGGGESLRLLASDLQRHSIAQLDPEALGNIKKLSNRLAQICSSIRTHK

[2] = biological target: T2, endogenous Cell division cycle associated 8 (CDCA8) (human (endogenous in A375 and OM431)) (UniProt Q53HL2); test: co-IP; endogenous Co-IP: proteins of A375 and OM431 cells immunoprecipitated (IgG control), separated by 10% SDS-PAGE and blotted for TMED3 and CDCA8
T2 sequence: T1 sequence

binding [1]: binds
B1: TMED3-Flag (protein, UniProt Q9Y3Q3 24-217)
chain: PCGAELTFELPDNAKQCFHEEVEQGVKFSLDYQVITGGHYDVDCYVEDPQGNTIYRETKKQYDSFTYRAEVKGVYQFCFSNEFSTFSHKTVYFDFQVGDEPPILPDMGNRVTALTQMESACVTIHEALKTVIDSQTHYRLREAQDRARAEDLNSRVSYWSVGETIALFVVSFSQVLLLKSFFTEKRPISRAVHS

binding [2]: binds
B2: endogenous TMED3 (protein, UniProt Q9Y3Q3 24-217)
chain: B1 chain
